According to PubChem BioAssay AID1671190 (National Center for Advancing Translational Sciences (NCATS), 2021):
Where “and” joins values, the source holds several entries; their conditions need not be identical. Equal values may be shown once. The whole screen tested about 580,000 compounds, of which about 6,100 (1.1%) were called active. Inconclusive means that the source gave no clear call. Such entries were picked first, then a sample of the others. The call rests on the fitted dose curve; in most records, active means well fitted inhibition curve with a large enough effect; inconclusive means small, poorly fitted or top-dose-only effect, or another doubt; inactive means no such curve, though single readings can be large or run the other way. A potency beside an inconclusive call is a rough fit, not a confirmed value.
On the % scale 0 is the no-effect control and ±100 the full control effect; potency means the concentration at half of the fitted maximal effect.

Sequences of proteins named here, by UniProt entry; tags and fusion partners are left off. A change or cut given only in a name is not applied to a line headed by its entry.
UniProt P18054: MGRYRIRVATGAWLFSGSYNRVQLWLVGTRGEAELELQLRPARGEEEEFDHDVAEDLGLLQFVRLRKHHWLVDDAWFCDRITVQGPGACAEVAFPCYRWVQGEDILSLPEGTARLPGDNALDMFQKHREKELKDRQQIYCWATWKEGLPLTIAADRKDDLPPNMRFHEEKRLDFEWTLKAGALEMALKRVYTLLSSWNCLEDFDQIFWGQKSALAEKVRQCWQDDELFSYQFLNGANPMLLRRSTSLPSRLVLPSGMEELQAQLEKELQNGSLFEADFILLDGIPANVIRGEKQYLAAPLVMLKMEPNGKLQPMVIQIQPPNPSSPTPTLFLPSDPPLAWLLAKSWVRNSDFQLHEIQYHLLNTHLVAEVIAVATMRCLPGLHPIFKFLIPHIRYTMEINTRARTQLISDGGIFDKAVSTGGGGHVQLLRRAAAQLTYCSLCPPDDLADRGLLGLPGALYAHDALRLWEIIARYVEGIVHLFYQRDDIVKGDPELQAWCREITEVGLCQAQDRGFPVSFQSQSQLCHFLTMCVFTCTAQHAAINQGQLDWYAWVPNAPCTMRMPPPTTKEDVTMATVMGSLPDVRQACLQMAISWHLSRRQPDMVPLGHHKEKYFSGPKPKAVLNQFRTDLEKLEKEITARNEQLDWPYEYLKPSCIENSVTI

These compounds were tested against Polyunsaturated fatty acid lipoxygenase ALOX12 (Homo sapiens) (UniProt P18054) (assay: Primary qHTS assay for inhibitors of human arachidonate 12S-lipoxygenase (ALOX12): Round 2). Details: purified 12hLO, xylenol orange hydroperoxide absorbance; activity change, negative = inhibition: at 108 µM (top of the series) unless noted.
Method in brief: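 Purified human 12hLO at 150 nM in 25 mM Hepes, 0.01% Triton X-100, pH 7.0, preincubated 15 min at room temperature with compound. Reaction started with 40 uM arachidonic acid, 30 min at room temperature. Hydroperoxide measured by Fe-xylenol orange, 573/405 nm absorbance ratio.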
`Cc1ccc(S(=O)(=O)N2C[C@H]3C(=O)C[C@@H]4C(=O)N(c5ccccc5)C(=O)[C@@H]4[C@@H]3C[C@@H]2c2ccccc2)cc1` was tested, and the Potency was inconclusive: 1.78 µM [inhibitor, full curve, poor fit]. In the case of `Cc1noc(C)c1CN1CCC2(CC1)C(C(=O)O)CC(=O)N2C` (centres undefined), the Potency is reported as inconclusive: 1.26 µM [inhibitor, full curve, poor fit]. In the case of `CN1CCSc2ccc(C(=O)NCc3ccccc3F)cc21`, the Potency is reported as inconclusive: 100 µM [inhibitor, partial curve, poor fit] and inconclusive: 50.1 µM [inhibitor, partial curve, poor fit]. For `CCC(c1nc2ccccc2[nH]1)n1c(=O)c(-c2ccco2)nc2ccccc21` (centres undefined), the Potency was active: 25.1 µM. `CCOC(=O)c1ccc(NC(=O)N2CCN(c3cccc(OC)c3)CC2)cc1` was tested, and the Potency was inconclusive: 4.47 µM [inhibitor, full curve, poor fit]. For `CCOC(=O)c1cc(Br)c(=O)n2ccccc12`, the Potency was inconclusive: 39.8 µM [inhibitor, partial curve, poor fit]. `Cc1c(Cl)cnc(NC(=O)COC(=O)C2CC3CCCC(C2)C3=O)c1Cl` (centres undefined) was tested, and the Potency was inconclusive: 50.1 µM [inhibitor, partial curve, poor fit]. For `COc1ccc(NC(=O)CN(C)C(=O)c2oc3c(ccc4ccccc43)c2C)cc1`, the Potency was inconclusive: 89.1 µM [inhibitor, single point]. In the case of `COc1ccccc1CNc1nc(NC(C)C)nc2ccsc12`, the Potency is reported as inconclusive: 100 µM [inhibitor, single point]. For `O=c1c2cn[nH]c2[nH]c(=S)n1-c1cccc2ccccc12`, the “activity change, negative = inhibition” value was inactive: -13.3%. In the case of `Cc1cc(C)n(-c2cccc(C(=O)NCC3Cc4cccc(-c5ccccn5)c4O3)c2)n1` (centres undefined), the “activity change, negative = inhibition” value is reported as inactive: 7.18%. In the case of `Cc1ccc(C2=C(O)C(=O)N(Cc3ccccc3)C2c2cccc(F)c2)cc1` (centres undefined), the Potency is reported as inconclusive: 7.08 µM [inhibitor, full curve, poor fit]. With `COCCN1CC(CO)C2(CCN(C(=O)COc3cccc(C)c3)CC2)C1` (centres undefined) the “activity change, negative = inhibition” value was inactive: 20.1%. With `CNCCCOc1ccc(C)cc1OC` the Potency was inconclusive: 0.0891 µM [inhibitor, full curve, poor fit]. In the case of `CCOC(=O)c1c(C)[nH]c(C(=O)OCC(=O)Nc2sccc2C(N)=O)c1C`, the activity change, negative = inhibition is reported as inconclusive: -35% [inhibitor]. In the case of `Cc1ccc(OCc2nc(-c3ccc(C(=O)N4CCN(c5cc(Cl)ccc5C)CC4)cc3)oc2C)cc1`, the “activity change, negative = inhibition” value is reported as inactive: -2.43%. For `COc1ccccc1-c1cnc2n[nH]c(-c3sccc3C)c2n1`, the Potency was inconclusive: 70.8 µM [inhibitor, full curve]. `Cc1cc2cc(NS(=O)(=O)c3c(C)cccc3[N+](=O)[O-])ccc2[nH]1` was tested, and the Potency was inconclusive: 25.1 µM [inhibitor, partial curve, poor fit]. For `COc1ccc(Nc2nnc(SCC(=O)/C=C3/N(C)c4ccccc4C3(C)C)s2)cc1`, the “activity change, negative = inhibition” value was inactive: -26.7%. With `NC(=O)c1ccc(NC(=O)COC(=O)C2(c3cccc(F)c3)CCCC2)cc1` the “activity change, negative = inhibition” value was inactive: -22.7%. In the case of `COC(=O)c1ccc(CSc2ccccc2NC(=S)Nc2cccc(SC)c2)o1`, the Potency is reported as inconclusive: 50.1 µM [inhibitor, partial curve, poor fit]. In the case of `COc1ccccc1N/N=C/c1c(CO)cnc(C)c1O`, the Potency is reported as inconclusive: 56.2 µM [inhibitor, partial curve, poor fit]. `CN1C[C@@H](NC(=O)Nc2ccccc2)C[C@H]1c1nc(-c2cnccn2)no1` was tested, and the “activity change, negative = inhibition” value was inactive: 8.94% [at 176 µM]. In the case of `Oc1cn2c(n1)Nc1ccc(Cl)c(Cl)c1C2`, the Potency is reported as inconclusive: 31.6 µM [inhibitor, single point]. `Cc1ccc(Cl)cc1N1CCN(C(=O)C2CCN(c3nnc(-n4cccc4)s3)CC2)CC1` was tested, and the “activity change, negative = inhibition” value was inactive: 298%. For `CCN1C(=O)C2(CCN(S(=O)(=O)c3ccc(OC)c(Cl)c3)CC2)c2ccccc21`, the Potency was inconclusive: 20 µM [inhibitor, partial curve, poor fit]. With `N#Cc1ccccc1OCC1CN(Cc2cccc(C(F)(F)F)c2)C(=O)c2c(ccnc2-c2ccc(OCC(=O)O)cc2)O1` (centres undefined) the “activity change, negative = inhibition” value was inactive: 12.9%. In the case of `O=C(Cc1cccs1)NCCN1CCOCC1`, the Potency is reported as inconclusive: 1.26 µM [inhibitor, full curve, poor fit]. In the case of `CS(=O)(=O)c1cccc(CNc2nc(Nc3ccc4c(c3)CCC(=O)N4)ncc2C(F)(F)F)c1`, the Potency is reported as inconclusive: 0.0863 µM [inhibitor, full curve, poor fit]. For `COc1ccc(-c2nn(-c3ccccc3)cc2C(=O)NC(=S)NNC(=O)c2ccncc2)cc1`, the Potency was active: 31.6 µM. `Cc1ccc(C(=O)NC(=S)Nc2ccc(N3CCOCC3)cc2)cc1C` was tested, and the Potency was active: 17.8 µM. In the case of `O=C(CSc1nnc(Cc2csc(Nc3cccc(Cl)c3)n2)o1)N1CCc2ccccc21`, the “activity change, negative = inhibition” value is reported as inactive: 0%. With `CCc1nc2nccc(-c3ccc4c(c3)OCCCO4)n2n1` the “activity change, negative = inhibition” value was inactive: 1.69%. With `Cc1n[nH]c(=S)n1/N=C/c1cccc(OCc2ccccc2)c1` the Potency was inconclusive: 39.8 µM [inhibitor, partial curve, poor fit]. For `COc1ccccc1OCc1nc(C#N)c(N2CCN(C)CC2)o1`, the “activity change, negative = inhibition” value was inactive: -19.9%. `Cc1c(Cc2ccccc2)c(=O)oc2cc(OCC(=O)NCC(O)c3ccccc3)ccc12` (centres undefined) was tested, and the “activity change, negative = inhibition” value was inactive: 2.06%. For `CNC(=S)N/N=C/c1cn(Cc2c(F)cccc2Cl)c2ccccc12`, the Potency was active: 25.1 µM. For `COc1ccc(-c2cc(C(=O)Nc3ccc(C(N)=O)cc3)c3ccccc3n2)cc1`, the Potency was inconclusive: 79.4 µM [inhibitor, partial curve, poor fit]. With `O=C1OC(C(=O)Nc2cccc3ncccc23)Cc2ccccc21` (centres undefined) the Potency was inconclusive: 44.7 µM [inhibitor, partial curve, poor fit]. `COc1cc2cnc(-c3ccccc3)c(-c3cccc(C(F)(F)F)c3)c2cc1OC` was tested, and the Potency was inconclusive: 15.8 µM [inhibitor, partial curve, poor fit]. With `COc1cccc(C=C2SC(=S)NC2=O)c1` the “activity change, negative = inhibition” value was inactive: -10.1%. In the case of `NC(=S)N/N=C/c1ccc2cccc(OCc3ccccc3)c2n1`, the Potency is reported as inconclusive: 31.6 µM [inhibitor, single point]. With `C=C1C(=O)c2sccc2C(c2ccc(OC)c(OC)c2)C1COC(C)=O` (centres undefined) the “activity change, negative = inhibition” value was inactive: -16.5%. `CCOC(=O)c1ccc(N=c2ssnc2Cl)cc1` was tested, and the Potency was active: 2.24 µM. In the case of `CCOC(=O)c1sc(Nc2ccccc2)nc1C(F)(F)F`, the Potency is reported as active: 39.8 µM. For `N#Cc1ccccc1CNc1ccc(Cl)cc1F`, the Potency was inconclusive: 17.8 µM [inhibitor, partial curve, poor fit]. In the case of `O=c1c(C(F)(F)F)nc2ccccc2n1CC(O)COCc1ccccc1` (centres undefined), the “activity change, negative = inhibition” value is reported as inactive: -26.6%. With `CCOC(=O)c1sc(-c2ccc(OC)cc2)cc1N` the “activity change, negative = inhibition” value was inactive: 2.68%. `CC1=C[C@@H](CNc2ccccn2)[C@H](C(C)C)C[C@H]1Cc1nnc(-c2cncn2C)o1` was tested, and the “activity change, negative = inhibition” value was inactive: 62.1% [at 176 µM]. `CCC(=O)OCCNc1cc(SCCC(=O)OC)c2nonc2c1[N+](=O)[O-]` was tested, and the Potency was inconclusive: 15.8 µM [inhibitor, full curve, poor fit]. With `CC(=O)c1cccc(NC(=O)COC(=O)CCC(=O)c2cccs2)c1` the Potency was inconclusive: 56.2 µM [inhibitor, partial curve, poor fit]. `CCOc1ccc(Cn2c(CNS(=O)(=O)c3c(C)cc(C)cc3C)nc3cccnc32)cc1` was tested, and the “activity change, negative = inhibition” value was inactive: -15.2%. For `O=S(=O)(c1ccccc1)C1Cc2ccccc2C1Cl` (centres undefined), the Potency was inconclusive: 17.8 µM [inhibitor, partial curve, poor fit]. With `CCC(CC)NC(=O)NC(C)c1ccc(Br)cc1` (centres undefined) the Potency was inconclusive: 5.01 µM [inhibitor, full curve, poor fit]. With `Nc1nnc(SCC(=O)N(C2CCCCC2)C2CCCCC2)s1` the “activity change, negative = inhibition” value was inactive: -0.822%. For `CN(C)C(=O)c1ccc(-c2nc(NCc3cccs3)c3ccccc3n2)cc1`, the Potency was inconclusive: 10 µM [inhibitor, full curve, poor fit]. With `Cc1ccc(S(=O)(=O)Nn2c(C)nnc2-n2nc(C)cc2C)cc1` the Potency was inconclusive: 5.01 µM [inhibitor, full curve, poor fit]. For `CCOc1cccn2c(=O)c(-c3cc(C)n(-c4ccc(Cl)cc4)n3)c(C)nc12`, the Potency was inconclusive: 3.55 µM [inhibitor, full curve, poor fit]. With `Cc1cn2nc(C(=O)N3CCC(NC(=O)c4c(F)cccc4F)CC3)cc2c(=O)[nH]1` the “activity change, negative = inhibition” value was inactive: -9.67%. In the case of `CN1CCC[C@H]1CCNc1ccc2c(=O)c3ccccc3n(C)c2c1`, the “activity change, negative = inhibition” value is reported as inactive: 11%. In the case of `Cc1cccc(C)c1Nc1c(-c2cccs2)nc2ncccn12`, the Potency is reported as inconclusive: 100 µM [inhibitor, partial curve, poor fit]. For `O=C(Nc1ccn(CCCNCC(c2ccccc2)c2ccccc2)c(=O)n1)OCc1ccccc1`, the “activity change, negative = inhibition” value was inactive: 37.7%. In the case of `CC(=O)C1=C(O)C(=O)N(Cc2cccnc2)C1c1ccc(C)cc1` (centres undefined), the Potency is reported as inconclusive: 11.2 µM [inhibitor, partial curve, poor fit]. `S=c1[nH]nc(-c2ccc(Cl)cc2)n1Cc1ccccc1` was tested, and the Potency was inconclusive: 25.1 µM [inhibitor, single point]. With `CSc1ccc(S(=O)(=O)N2CCC(C(=O)NCc3ccccn3)CC2)cc1` the Potency was inconclusive: 50.1 µM [inhibitor, partial curve, poor fit]. `O=C(Nc1ccc(F)cc1)c1cc2c(s1)CCCC2` was tested, and the Potency was inconclusive: 100 µM [inhibitor, partial curve, poor fit]. In the case of `C=CCSC1=C(C#N)C(c2ccccc2)CC(=O)N1` (centres undefined), the Potency is reported as inconclusive: 141 µM [inhibitor, partial curve, poor fit]. For `CN(C)CCCNc1oc(-c2ccc(Cl)cc2)nc1S(=O)(=O)c1ccccc1`, the Potency was inconclusive: 89.1 µM [inhibitor, single point]. `O=C(OCc1ccccc1)C1=NNC2C(=O)N(c3ccccc3)C(=O)C12` (centres undefined) was tested, and the “activity change, negative = inhibition” value was inactive: -4.26%.
